# Data from article doi:10.1101/2024.06.07.596542.
# Amino acid sequences for entries named in this document (tags omitted).
# UniProt Q01196: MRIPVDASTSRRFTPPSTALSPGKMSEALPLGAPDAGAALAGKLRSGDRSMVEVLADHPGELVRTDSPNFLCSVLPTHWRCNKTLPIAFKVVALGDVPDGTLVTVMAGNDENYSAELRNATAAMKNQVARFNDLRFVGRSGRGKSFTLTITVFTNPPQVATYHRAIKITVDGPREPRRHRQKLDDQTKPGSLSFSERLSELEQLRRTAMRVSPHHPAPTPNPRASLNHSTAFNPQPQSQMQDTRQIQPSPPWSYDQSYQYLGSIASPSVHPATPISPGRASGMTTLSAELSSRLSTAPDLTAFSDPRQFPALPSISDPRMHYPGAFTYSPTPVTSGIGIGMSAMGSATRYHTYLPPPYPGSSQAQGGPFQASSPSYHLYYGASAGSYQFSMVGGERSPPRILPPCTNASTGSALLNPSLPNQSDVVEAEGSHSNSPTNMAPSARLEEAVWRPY
# UniProt P32519: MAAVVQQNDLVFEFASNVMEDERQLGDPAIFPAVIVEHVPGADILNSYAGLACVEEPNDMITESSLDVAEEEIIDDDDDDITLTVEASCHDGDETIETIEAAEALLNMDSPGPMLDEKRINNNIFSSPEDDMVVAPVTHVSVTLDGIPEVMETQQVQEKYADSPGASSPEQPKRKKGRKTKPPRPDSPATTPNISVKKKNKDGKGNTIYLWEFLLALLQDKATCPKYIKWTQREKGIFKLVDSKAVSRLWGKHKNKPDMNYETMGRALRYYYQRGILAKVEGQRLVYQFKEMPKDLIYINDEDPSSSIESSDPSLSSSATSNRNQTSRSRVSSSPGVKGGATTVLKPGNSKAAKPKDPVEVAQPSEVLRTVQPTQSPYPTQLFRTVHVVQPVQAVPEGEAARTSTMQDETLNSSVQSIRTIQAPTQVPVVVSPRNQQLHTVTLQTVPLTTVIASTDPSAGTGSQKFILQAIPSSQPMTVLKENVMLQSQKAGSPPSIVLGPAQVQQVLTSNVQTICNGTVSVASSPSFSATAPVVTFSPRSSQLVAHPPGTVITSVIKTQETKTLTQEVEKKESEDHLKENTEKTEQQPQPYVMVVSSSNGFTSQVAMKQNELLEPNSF
# These are yes or no findings as the source states them, for the method shown. Binding seen in cells or lysates may run through a third protein. Some entries that bind do so weakly or less than the wild type.
# Molecular target: RUNX1 (human (endogenous in CD34+ HSPCs)) (UniProt Q01196)
# Assay: co-IP
substance,measurement,value
ELF1 (from UniProt P32519 1-619),binding,binds
